For at least one compound, name, drawing or mass did not settle the structure.
How the values were obtained:
7747 mRNA = experiment: TaqMan analysis of 7747 mRNA in a marmoset model; format: in vivo
8165 mRNA = experiment: TaqMan analysis of 8165 in a marmoset model; details: in vivo
9135 mRNA = experiment: TaqMan analysis of 9135 in a marmoset model; details: in vivo
2402 mRNA = experiment: TaqMan analysis of 2402 mRNA in a marmoset model; format: in vivo
9252 mRNA = experiment: TaqMan analysis of 9252 in a marmoset model; details: in vivo
33207 gene expression = 33207 gene expression in a marmoset model; format: in vivo
60491 mRNA = experiment: TaqMan analysis of 60491 mRNA in vivo (marmoset model)
1720 mRNA = experiment: TaqMan analysis of 1720 mRNA in vivo (marmoset model)
9151 mRNA = experiment: TaqMan analysis of 9151 mRNA in vivo (marmoset model)

| Structure (SMILES) | 7747 mRNA expression (7747 mRNA) | 8165 regulation (8165 mRNA) | 9135 regulation (9135 mRNA) | 2402 mRNA expression (2402 mRNA) | 9252 regulation (9252 mRNA) | 33207 gene expression (33207 gene expression) | 60491 mRNA expression (60491 mRNA) | 1720 mRNA expression (1720 mRNA) | 9151 mRNA expression (9151 mRNA) |
| --- | --- | --- | --- | --- | --- | --- | --- | --- | --- |
| COCc1c(C(C)C)nc(C(C)C)c(/C=C/[C@@H](O)C[C@@H](O)CC(=O)O)c1-c1ccc(F)cc1 [cerivastatin] | repressed | regulation | regulation | repressed | regulation | repressed |  |  |  |
| CC(C)OC(=O)C(C)(C)Oc1ccc(C(=O)c2ccc(Cl)cc2)cc1 [fenofibrate] |  |  |  |  |  | repressed | repressed | repressed | repressed |

Reference: US20030215840A1, “Methods and compositions for treating cardiovascular disease using 1682, 6169, 6193, 7771, 14395, 29002, 33216, 43726, 69292, 26156, 32427, 2402, 7747, 1720, 9151, 60491, 1371, 7077, 33207, 1419, 18036, 16105, 38650, 14245, 58848, 1870, 25856, 32394, 3484, 345, 9252, 9135, 10532, 18610, 8165, 2448, …” (Millennium Pharmaceuticals, Inc., priority 2002, published 2003)
